Molecular target: T1, human fibroblast activation protein (FAP) (human, UniProt Q12884 1-760)
T1 sequence (looked up): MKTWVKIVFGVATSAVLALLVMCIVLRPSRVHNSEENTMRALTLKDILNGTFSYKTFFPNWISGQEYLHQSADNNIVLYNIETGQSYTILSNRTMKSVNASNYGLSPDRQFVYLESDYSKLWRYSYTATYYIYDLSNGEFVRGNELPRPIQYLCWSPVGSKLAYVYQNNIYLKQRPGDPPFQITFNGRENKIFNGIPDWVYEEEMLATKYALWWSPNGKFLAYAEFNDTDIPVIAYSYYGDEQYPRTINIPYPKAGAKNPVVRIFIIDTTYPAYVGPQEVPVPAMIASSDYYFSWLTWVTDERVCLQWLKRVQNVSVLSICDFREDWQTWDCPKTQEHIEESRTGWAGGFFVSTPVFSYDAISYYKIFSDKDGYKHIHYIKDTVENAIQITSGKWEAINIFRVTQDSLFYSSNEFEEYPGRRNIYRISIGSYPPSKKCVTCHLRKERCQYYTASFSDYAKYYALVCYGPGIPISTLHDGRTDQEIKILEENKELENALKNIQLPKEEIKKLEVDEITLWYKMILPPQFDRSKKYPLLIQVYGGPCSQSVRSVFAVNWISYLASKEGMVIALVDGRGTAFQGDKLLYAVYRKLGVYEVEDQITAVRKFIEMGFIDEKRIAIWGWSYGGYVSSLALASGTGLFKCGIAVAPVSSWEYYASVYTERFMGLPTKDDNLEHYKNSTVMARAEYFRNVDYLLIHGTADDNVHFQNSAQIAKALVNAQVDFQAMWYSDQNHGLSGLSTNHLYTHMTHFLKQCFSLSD
Test: cell-based or functional assay

B1: 4G5_L2HG_CD8H_BB_CD3Z CAR (other)
chain: GSQIVLTQSPALMSASPGEKVTMTCTASSSVSYMYWYQQKPRSSPKPWIFLTSNLASGVPARFSGRGSGTSFSLTISSMEAEDAATYYCQQWSGYPPITFGSGTKLEIKGGGGSGGGGSGGGGSQVQLQQPGAELVKPGASVKLSCKASGYTITSYSLHWVKQRPGQGLEWIGEINPANGDHNFSEKFEIKATLTVDSSSNTAFMQLSRLTSEDSAVYYCTRLDDSRFHWYFDVWGAGTTVTVSSSGTTTPAPRPPTPAPTIASQPLSLRPEACRPAAGGAVHTRGLDFACDIYIWAPLAGTCGVLLLSLVITLYCKRGRKKLLYIFKQPFMRPVQTTQEEDGCSCRFPEEEEGGCELRVKFSRSADAPAYKQGQNQLYNELNLGRREEYDVLDKRRGRDPEMGGKPRRKNPQEGLYNELQKDKMAEAYSEIGMKGERRRGKGHDGLYQGLSTATKDTYDALHMQALPPR
- cytotoxicity and IFNγ production in co-culture with HOS cells (very low FAP): 20 effector to target ratio

— patent US20210087295A1 (University of Pennsylvania, published 2021)
